PubChem BioAssay AID1224828 – NIAID, 2016
Purpose: 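Knock-downs that increase or decrease LPS-induced p65 nuclear translocation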 (primary screen). Cells: mouse RAW264.7 G9 macrophage reporter cells (GFP-p65, Tnf promoter-mCherry). Knock-down reagent: siRNA pool against mouse genes, 100 nM. Timing: 2 days siRNA transfection, then 40 min LPS before fixation. Challenge: LPS (Salmonella minnesota R595) at 10 ng/ml. Detection: 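Microscopy ratio of nuclear to perinuclear-ring GFP-p65 signal, scaled to the plate median; gene score is the average of two replicate robust z-scores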. Reading the numbers: p65 translocation robust z-score: higher = more nuclear NF-kappaB p65 after LPS than the plate median; nuclear/cytoplasmic p65 ratio: higher = more nuclear NF-kappaB p65. Call rule: 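Active if robust z is above 3.3 (negative regulators) or below -1.56, the Tlr4 control median (positive regulators); activity score 50 or more; control wells not called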. Meaning of the calls: active = hit (p65 shift raised or lowered); inactive = no clear change.
In all, the deposit lists about 17,000 reagents; this is a part drawn at random. 762 of all reagents (4.5%) count as active. 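Active calls include both raised and lowered p65 entry, mostly lowered; wells with fewer than 50 cells lack a z-score.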 The raw values are shown without normalisation. No sequences are given here.

| gene symbol | p65 translocation robust z-score | nuclear/cytoplasmic p65 ratio, rep 1 | nuclear/cytoplasmic p65 ratio, rep 2 | low cell count flag | Call |
| --- | --- | --- | --- | --- | --- |
| Ddx3y (GeneID 26900) | – | 1.29 | 1.26 | fewer than 50 cells per well; well left out of scoring | inactive |
| Or5w8 (GeneID 258631) | -1.2 | 1.54 | 1.34 | enough cells to score | inactive |
| Mgat2 (GeneID 217664) | -1.27 | 1.49 | 1.39 | enough cells to score | inactive |
| Efemp1 (GeneID 216616) | 1.64 | 1.73 | 1.56 | enough cells to score | inactive |
| Cxcr2 (GeneID 12765) | -0.19 | 1.49 | 1.55 | enough cells to score | inactive |
| Cln5 (GeneID 211286) | -1.57 | 1.29 | 1.15 | enough cells to score | active |
| Wipi2 (GeneID 74781) | -1 | 1.27 | 1.34 | enough cells to score | inactive |
| Mkx (GeneID 210719) | – | 1.24 | 1.46 | fewer than 50 cells per well; well left out of scoring | inactive |
| Tas2r125 (GeneID 387352) | 0.41 | 1.58 | 1.63 | enough cells to score | inactive |
| Or6c216 (GeneID 258791) | 0.29 | 1.47 | 1.3 | enough cells to score | inactive |
| Nudt4 (GeneID 71207) | -0.87 | 1.36 | 1.28 | enough cells to score | inactive |
| Tspan10 (GeneID 208634) | -0.55 | 1.69 | 1.4 | enough cells to score | inactive |
| Supt4b (GeneID 100041294) | -2.18 | 1.09 | 0.985 | enough cells to score | active |
| Gpi1 (GeneID 14751) | -0.19 | 1.38 | 1.38 | enough cells to score | inactive |
| Tmem62 (GeneID 96957) | 0.46 | 1.61 | 1.96 | enough cells to score | inactive |
| Or4c120 (GeneID 258893) | 0.1 | 1.77 | 1.51 | enough cells to score | inactive |
| Cdkl3 (GeneID 213084) | – | 1.6 | 1.6 | fewer than 50 cells per well; well left out of scoring | inactive |
| Tspan9 (GeneID 109246) | -0.23 | 1.48 | 1.42 | enough cells to score | inactive |
| Or1o1 (GeneID 258504) | -0.89 | 1.45 | 1.51 | enough cells to score | inactive |
| Ddit3 (GeneID 13198) | 0.96 | 1.61 | 1.5 | enough cells to score | inactive |
| Sec24a (GeneID 77371) | -0.35 | 1.47 | 1.53 | enough cells to score | inactive |
| Chtf8 (GeneID 214987) | -0.24 | 1.39 | 1.37 | enough cells to score | inactive |
| Myo1b (GeneID 17912) | -0.03 | 1.77 | 1.6 | enough cells to score | inactive |
| Acy1 (GeneID 109652) | 0.62 | 1.71 | 1.72 | enough cells to score | inactive |

Targets above whose target name begins with D or d (2):
| gene symbol | p65 translocation robust z-score | nuclear/cytoplasmic p65 ratio, rep 1 | nuclear/cytoplasmic p65 ratio, rep 2 | low cell count flag | Call |
| --- | --- | --- | --- | --- | --- |
| Ddx3y (GeneID 26900) | – | 1.29 | 1.26 | fewer than 50 cells per well; well left out of scoring | inactive |
| Ddit3 (GeneID 13198) | 0.96 | 1.61 | 1.5 | enough cells to score | inactive |
